# Source: US12616751B2, “Photosensitizing antibody-fluorophore conjugates” (The USA, as represented by the Secretary, Department of …, priority 2010, dated 2026)
# Tests used:
# [1] = test system: A431 cells; test: Fluorescence microscopy of Pan-IR700 in A431 cells; format: cell-based
# Experimental: EGFR-expressing A431 cells were used as the target HER1+ cells. […] Cells were grown in RPMI 1640 supplemented with 10% fetal bovine serum and 1% penicillin/streptomycin in tissue culture flasks in a humidified incubator at 37° C. in an atmosphere of 95% air and 5% carbon dioxide. A431 or Balb/3T3/DsRed cells were seeded on cover glass-bottomed dishes and incubated for 24 hours. Pan-IR700 was added to the culture medium at 10 μg/mL and incubated either for 1 hour on ice or 6 hours at 37° C., then cells were washed with PBS. Culture medium was replaced with phenol red-free medium after washing with phosphate buffered saline (PBS).
# Fluorescence microscopy was performed as described in Example 2 to detect the antigen-specific localization of IR700.
# Reagents. […] All other chemicals used were of reagent grade. […] Then the mixture was purified with a Sephadex G50 column (PD-10; GE Healthcare). The protein concentrations were determined with Coomassie Plus protein assay kit (Pierce Biotechnology) by measuring light absorption at 595 nm (8453 Value System; Agilent Technologies). […] The number of IR700 per antibody was approximately 4 for the 1:4.5 reaction conditions. […] Quenching efficiency (QE) for a particular conjugation is defined as the fluorescence intensity with SDS divided by fluorescence intensity without SDS. […] Fluorescence lifetime measurements. […] Lifetime values and lifetime mapping were calculated to fit fluorescence temporal point-spread functions (TPSFs) as single-exponential models with the Fit TPSF tool. […] Power densities were measured with an optical power meter (PM 100, Thorlabs). […] The fluorescence intensities and lifetimes of each sample were determined using the Optix MX2 system at room temperature within a 1.7 ml centrifuge tube. To investigate the effect of PIT using Pan-1R700, the FLT of each sample at the concentration of 50 pg/mL was measured after irradiating the samples at a PIT dose of 0, 2, 4, 8, 15, 30 J/cm2. […] The fluorescence intensities and lifetimes of each sample were then obtained. […]
# [2] = Quenching efficiency and fluorescence lifetime (FLT) of Pan-IR700 in solution; format: physicochemical
# [3] = test system: A431 tumors; test: In vivo FLT imaging after PIT; parameters: species or system mice
# Experimental: Reagents. […] All other chemicals used were of reagent grade. […] Then the mixture was purified with a Sephadex G50 column (PD-10; GE Healthcare). The protein concentrations were determined with Coomassie Plus protein assay kit (Pierce Biotechnology) by measuring light absorption at 595 nm (8453 Value System; Agilent Technologies). […] The number of IR700 per antibody was approximately 4 for the 1:4.5 reaction conditions. The addition of 0.4% SDS to the sample dissociated the fluorophores from each other, effectively causing dequenching. Quenching efficiency (QE) for a particular conjugation is defined as the fluorescence intensity with SDS divided by fluorescence intensity without SDS. […] Pan-1R700 was kept at 4° C. in the refrigerator as a stock solution. Fluorescence lifetime measurements. FLT experiments were performed with the eXplore OptixTm-MX2 system (ART Advanced Research Technologies, Inc.) (Hutchinson et al., Biophys J 68:1574-82, 1995; Ma et al., Appl Opt 46:1650-7, 2007). A fixed pulsed laser diode was used as an excitation source at a wavelength of 670 nm. Region of interest (ROI) measurements with a spot size of 1.5 mm were selected at the image plane. […] Lifetime analysis was performed by using the ART OptiView (ART Advanced Research Technologies, Inc.). Lifetime values and lifetime mapping were calculated to fit fluorescence temporal point-spread functions (TPSFs) as single-exponential models with the Fit TPSF tool. Photoimmunotherapy for in vitro and in vivo models. PIT was performed with a red light-emitting diode (LED) light at 680 to 700 nm wavelength (Tech-LED, Marubeni America Co.) (Mitsunaga et al., Bioconjug Chem. 23:604-9, 2012). Power densities were measured with an optical power meter (PM 100, Thorlabs). Determination of FLT for Pan-IR700. Samples of Pan-IR700 at concentrations of 2.5, 5, 20, 40 pg/mL were prepared by dilution with PBS. The fluorescence intensities and lifetimes of each sample were determined using the Optix MX2 system at room temperature within a 1.7 ml centrifuge tube. To investigate the effect of PIT using Pan-1R700, the FLT of each sample at the concentration of 50 pg/mL was measured after irradiating the samples at a PIT dose of 0, 2, 4, 8, 15, 30 J/cm2. Cell line. […] The cell line was grown in RPMI 1640 (Life Technologies) containing 10% fetal bovine serum (Life Technologies), 0.03% L-glutamine, 100 units/mL penicillin, and 100 μg/mL streptomycin in 5% CO2 at 37° C. Cell pellet FLT studies A431. Cells were plated on […] cell culture flasks and incubated until confluent. Then Pan-IR700 conjugate was added to the media (1 pg/mL), and cells were incubated for 24 h at 37° C. Upon completion of incubation, cells were removed from the flasks, and centrifuged to obtain pellets. The resulting cell pellets were washed with PBS×3 and placed in 1.7 mL centrifuge tubes. The fluorescence intensities and lifetimes of each sample were then obtained. […] After that, these pellets were gently washed with PBS×1 and fluorescence intensity and lifetime images were obtained. To detect the antigen specific localization of IR700 and to confirm the morphological changes of A431 cells before and after PIT, fluorescence microscopy was performed using Olympus BX61 microscope (Olympus America) equipped with the following filters: a 590-650 nm excitation filter, a 665-740 nm band pass emission filter. […]
# [4] = test system: A431 cells; test: Cell pellet FLT studies; format: cell-based
# Experimental: Reagents. […] All other chemicals used were of reagent grade. […] Then the mixture was purified with a Sephadex G50 column (PD-10; GE Healthcare). The protein concentrations were determined with Coomassie Plus protein assay kit (Pierce Biotechnology) by measuring light absorption at 595 nm (8453 Value System; Agilent Technologies). […] The number of IR700 per antibody was approximately 4 for the 1:4.5 reaction conditions. The addition of 0.4% SDS to the sample dissociated the fluorophores from each other, effectively causing dequenching. Quenching efficiency (QE) for a particular conjugation is defined as the fluorescence intensity with SDS divided by fluorescence intensity without SDS. […] Pan-1R700 was kept at 4° C. in the refrigerator as a stock solution. Fluorescence lifetime measurements. FLT experiments were performed with the eXplore OptixTm-MX2 system (ART Advanced Research Technologies, Inc.) (Hutchinson et al., Biophys J 68:1574-82, 1995; Ma et al., Appl Opt 46:1650-7, 2007). A fixed pulsed laser diode was used as an excitation source at a wavelength of 670 nm. Region of interest (ROI) measurements with a spot size of 1.5 mm were selected at the image plane. […] Lifetime analysis was performed by using the ART OptiView (ART Advanced Research Technologies, Inc.). Lifetime values and lifetime mapping were calculated to fit fluorescence temporal point-spread functions (TPSFs) as single-exponential models with the Fit TPSF tool. Photoimmunotherapy for in vitro and in vivo models. PIT was performed with a red light-emitting diode (LED) light at 680 to 700 nm wavelength (Tech-LED, Marubeni America Co.) (Mitsunaga et al., Bioconjug Chem. 23:604-9, 2012). Power densities were measured with an optical power meter (PM 100, Thorlabs). Determination of FLT for Pan-IR700. Samples of Pan-IR700 at concentrations of 2.5, 5, 20, 40 pg/mL were prepared by dilution with PBS. The fluorescence intensities and lifetimes of each sample were determined using the Optix MX2 system at room temperature within a 1.7 ml centrifuge tube. To investigate the effect of PIT using Pan-1R700, the FLT of each sample at the concentration of 50 pg/mL was measured after irradiating the samples at a PIT dose of 0, 2, 4, 8, 15, 30 J/cm2. Cell line. […] The cell line was grown in RPMI 1640 (Life Technologies) containing 10% fetal bovine serum (Life Technologies), 0.03% L-glutamine, 100 units/mL penicillin, and 100 μg/mL streptomycin in 5% CO2 at 37° C. Cell pellet FLT studies A431. Cells were plated on […] cell culture flasks and incubated until confluent. Then Pan-IR700 conjugate was added to the media (1 pg/mL), and cells were incubated for 24 h at 37° C. Upon completion of incubation, cells were removed from the flasks, and centrifuged to obtain pellets. The resulting cell pellets were washed with PBS×3 and placed in 1.7 mL centrifuge tubes. The fluorescence intensities and lifetimes of each sample were then obtained. To investigate the effect of cellular internalization with Pan-IR700 conjugates, A431 cells were plated on a 75 mm^2 flask and were incubated with Pan-1R700 for 1, 2, 4, 6, 15 and 24 hours. After removing the flasks and obtaining A431 cell pellets, FLT measurements of the A431 pellet was acquired. After the A431 cell pellets were incubated overnight with Pan-R700, cell pellets were irradiated at doses of 0, 2, 4, 8, 15, 30 J/cm2. After that, these pellets were gently washed with PBS×1 and fluorescence intensity and lifetime images were obtained. To detect the antigen specific localization of IR700 and to confirm the morphological changes of A431 cells before and after PIT, fluorescence microscopy was performed using Olympus BX61 microscope (Olympus America) equipped with the following filters: a 590-650 nm excitation filter, a 665-740 nm band pass emission filter. Transmitted light differential interference contrast images (DIC) were also acquired. A431 cells were plated on a cover glass-bottomed culture well and incubated for 24 hours. […]
# [5] = test system: 3T3/HER2+ cells; test: Fluorescence microscopy, subcellular localization of IR700; format: cell-based; conditions: IR700 dye alone, 200 nM
substance,measurement,setting,value
Pan-IR700: Panitumumab (anti-human EGFR IgG2 MAb) conjugated to IR700; about 3 to 4 IR700 per antibody,subcellular localization,"[1]; 10 μg/mL, 1 hour on ice",detected on the cell surface
same,subcellular localization,"[1]; 10 μg/mL, 6 hours at 37° C.",mainly localized to the lysosome
same,subcellular localization,[1]; 24 hours after incubation,seen on the cell membrane and within endolysosomes
same,FLT,[2]; 2.5 pg/mL,3.62 ns
same,FLT,[2]; 5 pg/mL,3.58 ns
same,FLT,[2]; 20 pg/mL,3.44 ns
same,FLT,[2]; 40 pg/mL,3.60 ns
same,FLT after LED irradiation of the solution,"[2]; 50 pg/mL, 0, 2, 4, 8, 15, 30 J/cm2",approximately 3.44+/−0.058 ns
same,"FLT, over all concentrations",[2]; 2.5 to 40 pg/mL in PBS,3.56+/−0.081 ns
same,FLT shortening immediately after PIT,[3]; 10 J/cm^2,no significant shortening of FLT
same,IR700 FLT 6 hours after PIT,[3]; 10 J/cm^2,did not show this transiently prolonged FLT
same,IR700 FLT 6 hours after PIT,[3]; 30 and 50 J/cm2,Transient prolongation
same,average FLT of tumors,"[3]; 1 day after administration of 100 pg, n=40",3.27+/−0.46 ns
same,threshold NIR dose for immediate shortening of FLT,"[3]; mouse, in vivo",≥ 30 J/cm^2
same,FLT of cell pellet,[4]; 1 hour incubation,2.98 ns
same,FLT of cell pellet,[4]; 2 hours incubation,3.05 ns
same,FLT of cell pellet,[4]; 4 hours incubation,3.13 ns
same,FLT of cell pellet,[4]; 6 hours incubation,3.15 ns
same,FLT of cell pellet,[4]; 15 hours incubation,3.36 ns
same,FLT of cell pellet,[4]; 24 hours incubation,3.41 ns and 3.42 ns
same,FLT of cell pellet after PIT,"[4]; 24 hours incubation, 0 J/cm2",3.28 ns
same,FLT of cell pellet after PIT,"[4]; 24 hours incubation, 8 J/cm2",3.09 ns
same,FLT of cell pellet after PIT,"[4]; 24 hours incubation, 15 J/cm2",2.94 ns
same,FLT of cell pellet after PIT,"[4]; 24 hours incubation, 30 J/cm2",2.85 ns
IRDye® 700DX [IR700],incorporation of free dye into cells,[5],did not incorporate into the cells
same,incorporation of free dye into cells,[5]; listed as Free IR700 dye,did not incorporate into 3T3/HER2 cells

# Values joined by “and” are separate entries in the source; they are usually repeats but may differ in a detail not shown here. Identical values can stand only once.
